In PMC11392529:
These are yes or no findings as the source states them, for the method shown. In cells and extracts the contact can be indirect. A yes stands for co-enrichment or nearness to the bait. Other partners may have been found. One block for each molecule: values may come before it.

Sequences of proteins named here, by UniProt entry; tags and fusion partners are left off.
UniProt P52480: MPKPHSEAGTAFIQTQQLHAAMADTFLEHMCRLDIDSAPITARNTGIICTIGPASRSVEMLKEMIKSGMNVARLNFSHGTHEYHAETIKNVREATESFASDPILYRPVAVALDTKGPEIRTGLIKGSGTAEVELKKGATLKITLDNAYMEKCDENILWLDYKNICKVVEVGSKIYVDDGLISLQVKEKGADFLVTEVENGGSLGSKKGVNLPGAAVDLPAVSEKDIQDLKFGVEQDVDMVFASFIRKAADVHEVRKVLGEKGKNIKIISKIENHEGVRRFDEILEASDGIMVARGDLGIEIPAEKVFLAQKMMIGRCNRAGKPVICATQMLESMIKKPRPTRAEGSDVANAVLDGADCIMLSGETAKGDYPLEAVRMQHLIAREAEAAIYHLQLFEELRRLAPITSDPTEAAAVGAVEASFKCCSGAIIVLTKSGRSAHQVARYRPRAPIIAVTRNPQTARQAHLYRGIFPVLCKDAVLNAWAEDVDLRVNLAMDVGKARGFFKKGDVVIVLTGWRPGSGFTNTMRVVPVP
UniProt P00342: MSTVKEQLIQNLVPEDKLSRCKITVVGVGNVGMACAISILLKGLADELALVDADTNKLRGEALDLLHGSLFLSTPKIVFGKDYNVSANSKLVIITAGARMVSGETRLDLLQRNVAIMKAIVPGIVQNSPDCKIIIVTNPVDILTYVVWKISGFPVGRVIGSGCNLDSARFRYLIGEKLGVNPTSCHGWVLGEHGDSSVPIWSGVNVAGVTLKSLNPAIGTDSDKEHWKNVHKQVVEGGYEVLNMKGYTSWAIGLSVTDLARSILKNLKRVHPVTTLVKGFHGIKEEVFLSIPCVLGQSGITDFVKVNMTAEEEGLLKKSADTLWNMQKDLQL

Biological target: Pyruvate kinase M2 (PKM2), endogenous in primary astrocytes (mouse (endogenous in primary astrocytes)) (UniProt P52480)
Assay: affinity purification with mass spectrometry; lysates of unstimulated and MOGsup-stimulated (24 hr) primary astrocytes immunoprecipitated with antibody against PKM2; Q-Exactive Orbitrap, MaxQuant, Uniprot mouse database

binding: binds
Molecule: LDHC, endogenous in primary astrocytes (from UniProt P00342 1-332)

binding: binds
B1: MDH2, endogenous in primary astrocytes (protein, UniProt P08249 25-338)
chain: AKVAVLGASGGIGQPLSLLLKNSPLVSRLTLYDIAHTPGVAADLSHIETRANVKGYLGPEQLPDCLKGCDVVVIPAGVPRKPGMTRDDLFNTNATIVATLTAACAQHCPEAMVCIIANPVNSTIPITAEVFKKHGVYNPNKIFGVTTLDIVRANTFVAELKGLDPARVNVPVIGGHAGKTIIPLISQCTPKVDFPQDQLATLTGRIQEAGTEVVKAKAGAGSATLSMAYAGARFVFSLVDAMNGKEGVVECSFVQSKETECTYFSTPLLLGKKGLEKNLGIGKITPFEEKMIAEAIPELKASIKKGEDFVKNMK
